{
  "source": "paper PMC13424409",
  "tested_on": "MBP-NbNTL9 (Nicotiana benthamiana)",
  "assay": "EMSA",
  "conditions": "unlabeled Pro-PR1-1 competes; Chemiluminescent EMSA Kit (Beyotime GS009), 20 or 50 nM biotinylated probe, 1-3 ug protein; pH and temperature not stated; recombinant protein; protein details: MBP (N-terminal); label: 3' biotin",
  "note": "Construct, isoform or probe ends are uncertain for at least one entry.",
  "data": [
    {"sequence": "TAATGCTTTAGGTGGTGAAGTATAG (double strand) [Pro-PR1-1]", "values": [
      {"measurement": "binding result", "value": "binds"}
    ]}
  ]
}
